Measurements as given in US12453731B2, “Aniline-based WDR5 protein-protein interaction inhibitor, and preparation method and use thereof” (CHINA PHARMACEUTICAL UNIVERSITY, priority 2019, dated 2025).
At least one compound was matched to its structure with a doubt left.

System: methylation level of H3K4
Assay: inhibition of the methylation level of H3K4 (methyltransferase activity)
Type: biochemical

Compound: CN1CCN(c2ccc(-c3ccncc3)cc2Nc2ncnc(Cl)c2N)CC1 [Example 45, 6-chloro-N^4-(2-(4-methylpiperazin-1-yl)-5-(pyridin-4-yl)phenyl)pyrimidine-4,5-diamine]
- Whether the methylation level of H3K4 was inhibited: Yes
